Measured values: the supplement of paper PMC8728848
The other results are listed elsewhere or left out.

Experiments:
Experiment in all cases: glycan array binding signal (z-score within array); higher = stronger binding
Conditions in all cases: glycan notation: IUPAC condensed, linker removed
Gal3S(b1-4)Glc = biological target: Gal3S(b1-4)Glc
Procedure, shortened: (§1)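 Arrays were curated from the Consortium for Functional Glycomics database, 3228 in total, and kept only where the protein sequence was available. Binding is expressed as a within-array Z-score. This score was averaged across arrays of the same protein sequence at different concentrations or buffers and across linkers, and negative values can be read as non-binding.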

Gal3S(b1-4)Glc6S = biological target: Gal3S(b1-4)Glc6S
Procedure, shortened: as §1

Gal3S(b1-4)GlcNAc = biological target: Gal3S(b1-4)GlcNAc
Procedure, shortened: as §1

[1] = biological target: Gal3S(b1-4)[Fuc(a1-3)]Glc6S
Procedure, shortened: as §1

[2] = biological target: Gal3S(b1-4)[Fuc(a1-3)]GlcNAc
Procedure, shortened: as §1

[3] = biological target: Gal3S(b1-4)[Fuc(a1-3)]GlcNAc6S
Procedure, shortened: as §1

Gal3S4S(b1-4)GlcNAc = biological target: Gal3S4S(b1-4)GlcNAc
Procedure, shortened: as §1

Gal3S6S(b1-4)GlcNAc = biological target: Gal3S6S(b1-4)GlcNAc
Procedure, shortened: as §1

Gal3S6S(b1-4)GlcNAc6S = biological target: Gal3S6S(b1-4)GlcNAc6S
Procedure, shortened: as §1

Gal4S(b1-4)GlcNAc = biological target: Gal4S(b1-4)GlcNAc
Procedure, shortened: as §1

Gal4S6S(b1-4)GlcNAc = biological target: Gal4S6S(b1-4)GlcNAc
Procedure, shortened: as §1

Gal6P(b1-4)GlcNAc = biological target: Gal6P(b1-4)GlcNAc
Procedure, shortened: as §1

Gal6S(b1-3)GlcNAc = biological target: Gal6S(b1-3)GlcNAc
Procedure, shortened: as §1

Gal6S(b1-3)GlcNAc6S = biological target: Gal6S(b1-3)GlcNAc6S
Procedure, shortened: as §1

Gal6S(b1-4)Glc = biological target: Gal6S(b1-4)Glc
Procedure, shortened: as §1

Gal6S(b1-4)Glc6S = biological target: Gal6S(b1-4)Glc6S
Procedure, shortened: as §1

Gal6S(b1-4)GlcNAc = biological target: Gal6S(b1-4)GlcNAc
Procedure, shortened: as §1

Gal6S(b1-4)GlcNAc6S = biological target: Gal6S(b1-4)GlcNAc6S
Procedure, shortened: as §1

GalNAc(a1-3)Gal = biological target: GalNAc(a1-3)Gal
Procedure, shortened: as §1

GalNAc(a1-3)GalNAc = biological target: GalNAc(a1-3)GalNAc
Procedure, shortened: as §1

[4] = biological target: GalNAc(a1-3)GalNAc(b1-3)Gal(a1-4)Gal(b1-4)Glc
Procedure, shortened: as §1

[5] = biological target: GalNAc(a1-3)GalNAc(b1-3)Gal(a1-4)Gal(b1-4)GlcNAc
Procedure, shortened: as §1

GalNAc(b1-3)Gal = biological target: GalNAc(b1-3)Gal
Procedure, shortened: as §1

[6] = biological target: GalNAc(b1-3)Gal(a1-4)Gal(b1-4)GlcNAc
Procedure, shortened: as §1

[7] = biological target: GalNAc(b1-3)Gal(a1-4)Gal(b1-4)GlcNAc(b1-3)Gal(b1-4)Glc
Procedure, shortened: as §1

[8] = biological target: GalNAc(b1-3)Gal(a1-6)Gal(b1-4)Glc
Procedure, shortened: as §1

GalNAc(b1-3)GalNAc = biological target: GalNAc(b1-3)GalNAc
Procedure, shortened: as §1

GalNAc(b1-3)GlcNAc = biological target: GalNAc(b1-3)GlcNAc
Procedure, shortened: as §1

GalNAc(b1-4)Gal(b1-4)Glc = biological target: GalNAc(b1-4)Gal(b1-4)Glc
Procedure, shortened: as §1

GalNAc(b1-4)GlcNAc = biological target: GalNAc(b1-4)GlcNAc
Procedure, shortened: as §1

[9] = biological target: GalNAc(b1-4)GlcNAc(b1-2)Man
Procedure, shortened: as §1

[10] = biological target: GalNAc(b1-4)GlcNAc(b1-2)Man(a1-3)[GalNAc(b1-4)GlcNAc(b1-2)Man(a1-6)]Man(b1-4)GlcNAc(b1-4)GlcNAc
Procedure, shortened: as §1

[11] = biological target: GalNAc(b1-4)GlcNAc(b1-3)GalNAc(b1-4)GlcNAc
Procedure, shortened: as §1

GalNAc(b1-4)GlcNAc6S = biological target: GalNAc(b1-4)GlcNAc6S
Procedure, shortened: as §1

GalNAc(b1-6)GalNAc = biological target: GalNAc(b1-6)GalNAc
Procedure, shortened: as §1

GalNAc3S(b1-4)GlcNAc = biological target: GalNAc3S(b1-4)GlcNAc
Procedure, shortened: as §1

GalNAc3S(b1-4)GlcNAc3S = biological target: GalNAc3S(b1-4)GlcNAc3S
Procedure, shortened: as §1

[12] = biological target: GalNAc3S(b1-4)[Fuc(a1-3)]GlcNAc
Procedure, shortened: as §1

GalNAc4S6S(b1-4)GlcNAc = biological target: GalNAc4S6S(b1-4)GlcNAc
Procedure, shortened: as §1

GalNAc6S(b1-4)GlcNAc = biological target: GalNAc6S(b1-4)GlcNAc
Procedure, shortened: as §1

Glc(a1-4)Glc = biological target: Glc(a1-4)Glc
Procedure, shortened: as §1

[13] = biological target: Glc(a1-4)Glc(a1-4)Glc(a1-4)Glc
Procedure, shortened: as §1

Glc(a1-6)Glc(a1-6)Glc = biological target: Glc(a1-6)Glc(a1-6)Glc
Procedure, shortened: as §1

[14] = biological target: Glc(a1-6)Glc(a1-6)Glc(a1-6)Glc
Procedure, shortened: as §1

Glc(b1-4)Glc = biological target: Glc(b1-4)Glc
Procedure, shortened: as §1

B1: FimA-N2 (Actinomyces oris) (protein)
chain: MHHHHHHSSGVDLGTENLYFQSNAWIYDVNVYPKNEAIDVDKTIQAQKLNGYGVGSLIKFPVESTAPTLDAKSFYKYFQLKDTLDERLSEVTATDVSLEGTPLQPTDYKVETKQQTVTVTFTAEGLKKIKAAPGKKVSAVFQGKVTKAGNGAITNRAQVISDTLYAEQPPTPETPPTDPENPPTSDEVISRWGDLSIKKVDTHQQGQTKA
glycan array binding signal (z-score) (Gal3S(b1-4)Glc): 0.216
glycan array binding signal (z-score) (Gal3S(b1-4)Glc6S): 0.583
glycan array binding signal (z-score) (Gal3S(b1-4)GlcNAc): 2.69
glycan array binding signal (z-score) [1]: 3.08
glycan array binding signal (z-score) [2]: 1.28
glycan array binding signal (z-score) [3]: 0.518
glycan array binding signal (z-score) (Gal3S4S(b1-4)GlcNAc): -0.611
glycan array binding signal (z-score) (Gal3S6S(b1-4)GlcNAc): 0.796
glycan array binding signal (z-score) (Gal3S6S(b1-4)GlcNAc6S): 0.502
glycan array binding signal (z-score) (Gal4S(b1-4)GlcNAc): 3.9
glycan array binding signal (z-score) (Gal4S6S(b1-4)GlcNAc): 0.235
glycan array binding signal (z-score) (Gal6P(b1-4)GlcNAc): -0.517
glycan array binding signal (z-score) (Gal6S(b1-3)GlcNAc): -0.866
glycan array binding signal (z-score) (Gal6S(b1-3)GlcNAc6S): -0.204
glycan array binding signal (z-score) (Gal6S(b1-4)Glc): 1.79
glycan array binding signal (z-score) (Gal6S(b1-4)Glc6S): -0.257
glycan array binding signal (z-score) (Gal6S(b1-4)GlcNAc): -0.518
glycan array binding signal (z-score) (Gal6S(b1-4)GlcNAc6S): -0.917
glycan array binding signal (z-score) (GalNAc(a1-3)Gal): 0.771
glycan array binding signal (z-score) (GalNAc(a1-3)GalNAc): 0.547
glycan array binding signal (z-score) [4]: -0.857
glycan array binding signal (z-score) [5]: -0.239
glycan array binding signal (z-score) (GalNAc(b1-3)Gal): 2.41
glycan array binding signal (z-score) [6]: 2.19
glycan array binding signal (z-score) [7]: 1.53
glycan array binding signal (z-score) [8]: 0.567
glycan array binding signal (z-score) (GalNAc(b1-3)GalNAc): -1.14
glycan array binding signal (z-score) (GalNAc(b1-3)GlcNAc): -0.555
glycan array binding signal (z-score) (GalNAc(b1-4)Gal(b1-4)Glc): 0.367
glycan array binding signal (z-score) (GalNAc(b1-4)GlcNAc): 1.21
glycan array binding signal (z-score) [9]: 0.453
glycan array binding signal (z-score) [10]: -0.274
glycan array binding signal (z-score) [11]: -1.4
glycan array binding signal (z-score) (GalNAc(b1-4)GlcNAc6S): -0.333
glycan array binding signal (z-score) (GalNAc(b1-6)GalNAc): 0.791
glycan array binding signal (z-score) (GalNAc3S(b1-4)GlcNAc): 1.34
glycan array binding signal (z-score) (GalNAc3S(b1-4)GlcNAc3S): 0.248
glycan array binding signal (z-score) [12]: -0.131
glycan array binding signal (z-score) (GalNAc4S6S(b1-4)GlcNAc): -0.331
glycan array binding signal (z-score) (GalNAc6S(b1-4)GlcNAc): 0.507
glycan array binding signal (z-score) (Glc(a1-4)Glc): -0.155
glycan array binding signal (z-score) [13]: -1.2
glycan array binding signal (z-score) (Glc(a1-6)Glc(a1-6)Glc): -0.88
glycan array binding signal (z-score) [14]: -0.067
glycan array binding signal (z-score) (Glc(b1-4)Glc): 1.36
